Results from PubChem BioAssay AID1688 (National Center for Advancing Translational Sciences (NCATS), 2009).
Out of some 220,000 compounds screened, about 2,400 (1.1%) were called active. The inconclusive results got no clear call from the source; some entries with a clear call stand among them for comparison. Calls come from the whole dose curve; as a rule, active = well fitted inhibition curve with a large enough effect; inconclusive = small, poorly fitted or top-dose-only effect, or effect the other way; inactive = no such curve, though single readings can be large or run the other way. Potencies of inconclusive entries are doubtful fits and often do not repeat.
% is set by controls: 0 for no effect and ±100 for the full control effect; potency is the fitted concentration of half-maximal effect.

Assay: qHTS Multiplex Assay to Identify Dual Action Probes in a Cell Model of Huntington: Aggregate Formation (GFP); note: nearly all actives have a fitted effect of over 60% in size
Details: PC12 HttQ103-GFP aggregates, Acumen cytometry, 40 h; activity change, negative = inhibition: at 46.1 µM (top of the series) unless noted
Summary of the method: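 PC12 cells stably carrying ecdysone-inducible HTT exon 1 Q103–GFP were induced with tebufenozide (100 nM final) and treated with library compounds in titration. GFP aggregates in lysates were counted by laser scanning cytometry.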
In the case of Fc1ccccc1-c1nnc2c3ccccc3nc(N3CCOCC3)n12, the Potency is reported as inconclusive: 4.47 µM [inhibitor, single point]. For Cc1nnn(-c2nonc2N)c1C(=O)N/N=C/c1cccc2ccccc12, the Potency was “inactive”. In the case of CCS(=O)(=O)Nc1ccc(C2=NN(C(=O)c3ccco3)C(c3ccc(C)cc3)C2)cc1 (stereo not given), the Potency is reported as inconclusive: 35.5 µM [inhibitor, single point]. In the case of O=S(=O)(Nc1cccc(CCc2ccccn2)c1)c1ccc2ccccc2c1, the Potency is reported as inconclusive: 35.5 µM [inhibitor, single point]. In the case of O=S(=O)(CC(CN1CCCC1)N1CCCC1)c1ccc2ccccc2c1 (stereo not given), the Potency is reported as inconclusive: 1.41 µM [inhibitor, partial curve, poor fit]. In the case of Cc1nn(-c2ccccc2)c2sc(C(=O)N3CCOCC3)cc12, the Potency is reported as inconclusive: 14.1 µM [inhibitor, partial curve, poor fit]. In the case of COc1ccc(/C=C/C(=O)NC(=S)Nc2ccc(S(=O)(=O)Nc3nccnc3OC)cc2)cc1, the Potency is reported as inconclusive: 15.8 µM [activator, single point]. With O=C1C=C(OCc2ccccc2)CN1 the Potency was inconclusive: 0.794 µM [inhibitor, single point]. With Cc1ccc(C2C(/C=C3/SC(=S)NC3=O)=C(c3cccs3)Oc3ccccc32)cc1 (stereo not given) the Potency was inconclusive: 12.6 µM [inhibitor, single point]. For Cc1ccccc1CS(=O)(=O)c1nnc([C@H](Cc2ccccc2)NC(=O)OC(C)(C)C)o1, the Potency was inconclusive: 4.47 µM [inhibitor, full curve]. In the case of CC(=O)Nc1ccc(OC(=O)c2cc3cc(Br)ccc3oc2=O)cc1, the Potency is reported as inconclusive: 2.51 µM [inhibitor, single point]. For Cc1nn(-c2ccccc2)c(N2CCCCC2)c1/C=N/NC(=O)c1ccncc1, the Potency was inconclusive: 11.2 µM [inhibitor, single point]. For Cc1ccc(NC(=S)NCCC2=CCCCC2)cc1, the Potency was active: 12.6 µM. In the case of O=C(CSc1nc2sc3c(c2c(=O)n1-c1ccccc1)CCCC3)NCc1ccco1, the Potency is reported as inconclusive: 35.5 µM [activator, partial curve, poor fit]. For CC(C)(C)c1ccc(C(=O)NC(=S)Nn2cnnc2)cc1, the Potency was “inactive”. For CCNc1ccc(Br)cc(C(=O)/C=C/c2c(Cl)cccc2Cl)c1=O, the Potency was inconclusive: 35.5 µM [inhibitor, single point]. With Cc1cccc(Nc2nc(-c3c(C)nc4ccccn34)cs2)c1 the Potency was active: 11.2 µM. With C#CC[N+](C)(C)CC#Cc1ccc(C)cc1 the Potency was inconclusive: 35.5 µM [inhibitor, single point]. In the case of Cc1ccc(Nc2ncnc3nc[nH]c23)cc1Cl, the Potency is reported as inconclusive: 5.62 µM [inhibitor, single point]. With Cc1cc(C)c2cc(CN(CCN3CCCC3)C(=O)Nc3ccc(F)cc3)c(=O)[nH]c2c1 the Potency was inconclusive: 2.82 µM [activator, full curve]. In the case of CN1CCN(c2ccccc2NC(=O)c2ccc(-c3ccc(Cl)cc3Cl)o2)CC1, the Potency is reported as inconclusive: 35.5 µM [inhibitor, single point]. With CCc1ccc(NC(=O)c2cnc(N3CCN(c4ccccn4)CC3)c3ccccc23)cc1 the Potency was “inactive”. In the case of O=C(CSc1nc(-c2ccccc2)ns1)N1CCOCC1, the Potency is reported as “inactive”. With CC1=NN(c2ccccc2)C(=O)C1C(=O)c1ccc(Cl)cc1 (stereo not given) the Potency was inconclusive: 35.5 µM [inhibitor, single point]. With Cc1ccc(N/N=C(\C#N)C(N)=S)c(C)c1 the Potency was “inactive”. In the case of CCC(=O)Nc1ccccc1C(=O)OCc1ccc(C(=O)c2ccccc2)cc1, the Potency is reported as inconclusive: 35.5 µM [inhibitor, single point]. In the case of CCCCC(CC)CCC(CC(C)C)OS(=O)(=O)O (stereo not given), the Potency is reported as “inactive”. In the case of CCOc1ccc(-n2nc3c(SCCN4CCCC4)nnc(C)c3c2C)cc1, the Potency is reported as inconclusive: 22.4 µM [activator, partial curve]. For CC(C(=O)Nc1sc2c(c1C#N)CCCCC2)N1C(=O)c2ccccc2C1=O (stereo not given), the Potency was inconclusive: 1.41 µM [inhibitor, partial curve]. In the case of Cn1nc(OCC(=O)O)cc1C(F)(F)F, the activity change, negative = inhibition is reported as inactive: -3.01% [at 9.22 µM]. In the case of CC(C)(C)C(=O)CSc1nc2ncc(Br)cc2[nH]1, the Potency is reported as “inactive”. For CC12CCC(C(=O)O)(c3nc(C#N)c(C#N)nc31)C2(C)C (stereo not given), the Potency was inconclusive: 4.47 µM [activator, partial curve]. With Oc1ccccc1/C=N/NC(=S)NC1CC2C=CC1C2 (stereo not given) the activity change, negative = inhibition was inactive: 2.41% [at 9.22 µM]. In the case of O=C(O)CCCNC(=O)OCc1ccccc1, the Potency is reported as inconclusive: 35.5 µM [inhibitor, single point]. With O=C(CCCc1nc(-c2ccccc2)no1)NCc1cccnc1 the Potency was inconclusive: 10 µM [inhibitor, partial curve]. In the case of CCNc1nc(NCC)n2c(SCc3ccc(F)cc3)nnc2n1, the Potency is reported as active: 2.51 µM. For CCc1nc(SCC(=O)N2CCCc3ccccc32)c2oc3ccccc3c2n1, the Potency was inconclusive: 22.4 µM [inhibitor, single point]. For CCn1c(=O)cc(OCC(=O)NC2CCCCC2)c2ccccc21, the Potency was inconclusive: 35.5 µM [activator, single point]. In the case of CCCCc1cc(O)c(CCCC)c(O)c1, the Potency is reported as inconclusive: 14.1 µM [inhibitor, single point]. For CC(=O)c1ccc(N=Nc2ccc(N)cc2)cc1, the activity change, negative = inhibition was inactive: -16.7% [at 9.22 µM]. For Cc1ccc(C(=O)NCC2CCCO2)cc1N1CCCC1=O (stereo not given), the Potency was “inactive”. In the case of CCn1c(N2CCN(S(=O)(=O)c3ccccc3C(F)(F)F)CC2)nc2ccccc21, the Potency is reported as inconclusive: 10 µM [inhibitor, partial curve]. With O=C(Nc1ccc(Cl)c(Cl)c1)Nc1nnc(-c2ccncc2)s1 the Potency was inconclusive: 6.31 µM [inhibitor, full curve, poor fit]. With S=C(NC1CCCCC1)N1CCc2ccccc2C1 the Potency was active: 7.08 µM. In the case of CCCCC(=O)Nc1nc(C)c(-c2csc(Nc3cc(OC)ccc3OC)n2)s1, the Potency is reported as inconclusive: 35.5 µM [inhibitor, single point].
